# Source: PubChem BioAssay AID504648 (National Center for Advancing Translational Sciences (NCATS), 2011)
# About 610 (0.16%) of roughly 390,000 compounds were called active. Inconclusive results, whose numbers are uncertain, are shown with a selection of clear calls. Calls follow the shape of the dose curve; as a rule, active = well fitted inhibition curve with a large enough effect; inconclusive = small, poorly fitted or top-dose-only effect, or effect the other way, or another doubt; inactive = no such curve, though single readings can be large or run the other way. Potencies of inconclusive entries are doubtful fits and often do not repeat.
# Assay: Nrf2 qHTS screen for inhibitors: counterscreen for cytotoxicity
# Conditions: A549 ARE-Fluc cells, CellTiter-Fluor viability, 18-24 h; activity change, negative = cytotoxicity: at 46 µM (top of the series)
# Method in brief: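 Cytotoxicity counterscreen: CellTiter-Fluor fluorescence was measured in A549 ARE_Fluc cells after 18-24 h of compound exposure in a concentration series. The subsequent BugLite luminescent read reports ARE-luciferase activity.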
# % is scaled to controls: 0 for no effect and ±100 for the full control effect; potency is read from the fitted curve at half-maximal effect.
SMILES,Potency,"activity change, negative = cytotoxicity"
COC(=O)c1ccc(=O)c2nc3/c(=C/O)c(O)cc(=O)c3[nH]c12,"inconclusive: 23.1 µM [falling, single point]",
Cc1ccc(Cn2ccc(-c3cnc(-c4ccccc4)s3)n2)cc1,"inconclusive: 18.4 µM [falling, single point]",
O=C(NC(=S)Nc1cc(Cl)ccc1N1CCOCC1)c1ccc(-c2cccc(Cl)c2)o1,,inactive: -4.06%
COc1ccccc1C(=O)NC1CC2CCC(C1)N2Cc1ccccc1 (stereo not drawn),"inconclusive: 16.4 µM [falling, partial curve, poor fit]",
O=[N+]([O-])c1cccc(NC(=S)Nc2nc(-c3ccccc3Cl)cs2)c1,"inconclusive: 29.1 µM [falling, single point]",
CCC(C)n1c(=O)c(C(=O)Nc2ccccc2S(N)(=O)=O)c(O)c2ccccc21 (stereo not drawn),"inconclusive: 29.1 µM [falling, single point]",
COc1cc(Cl)c(C)cc1NC(=O)Cn1ncc2c(=O)oc3ccccc3c21,,inactive: 8.07%
COc1ccc(-c2nn(-c3ccccc3)cc2/C=C/C(=O)O)cc1[N+](=O)[O-],"inconclusive: 1.64 µM [falling, partial curve, poor fit]",
CCc1ccc(CNC(=O)c2cnc3sc(N4CCCCC4)nn3c2=O)cc1,,inactive: 19.6%
CCCCCCCCC[n+]1cccc2c3ccccc3ccc21,"inconclusive: 14.6 µM [falling, partial curve]",
Cc1ccc(-c2nnc(NCc3ccccc3)c3ccccc23)cc1,"inconclusive: 29.1 µM [falling, single point]",
Cc1nn(-c2ccc(F)cc2)c(-n2cccc2)c1C(=O)NCCCN1CCN(c2cccc(Cl)c2)CC1,,inactive: -12.6%
CC1CCCC(NC(=S)NC(=O)c2ccccc2Br)C1C (stereo not drawn),,inactive: -11.6%
CSc1ccc(CCNC(=O)c2ccc(CS(=O)(=O)c3ccc(Br)cc3)o2)cc1,,inactive: -1.58%
c1ccc(-c2cnn3c(-c4ccccc4)c(-c4ccccc4)nc3n2)cc1,"inconclusive: 2.59 µM [activator, full curve, poor fit]",
CCN(CC)C(=O)[C@H]1C[C@H](CC(=O)NCc2cccc(C(F)(F)F)c2)C(=O)N2CCc3c([nH]c4ccc(Cl)cc34)[C@]12C,"inconclusive: 16.4 µM [falling, single point]",
COc1cccc(CC2(CO)CCCN(C/C=C/c3ccccc3OC)C2)c1 (stereo not drawn),"inconclusive: 29.1 µM [falling, partial curve, poor fit]",
Cc1nc2oc3c(NCc4ccccc4)ncnc3c2c2c1COC(C)(C)C2,,inactive: -11.3%
Cc1cc(F)ccc1NC(=O)CN(C)S(=O)(=O)c1ccc(C(=O)N2CCOCC2)s1,,inactive: 8.88%
CCOc1ccc(NC(=O)c2c(NCc3sccc3C)sc3c2CCCCC3)cc1,,inactive: -6.63%
Cc1cc(=O)oc2cc(OCC3CC(c4ccccc4)=NO3)ccc12 (stereo not drawn),,inactive: -11.2%
CN(CC(=O)O)S(=O)(=O)c1ccc2c(c1)NC(=O)CC(=O)N2,,inactive: -0.408%

# 2 records drawn at random from the list so far, as already listed:
SMILES,Potency,"activity change, negative = cytotoxicity"
O=[N+]([O-])c1cccc(NC(=S)Nc2nc(-c3ccccc3Cl)cs2)c1,"inconclusive: 29.1 µM [falling, single point]",
CCc1ccc(CNC(=O)c2cnc3sc(N4CCCCC4)nn3c2=O)cc1,,inactive: 19.6%

# Following part

SMILES,Potency,"activity change, negative = cytotoxicity"
CSc1ccccc1NC(=O)Nc1ccc(F)c(Cl)c1,"inconclusive: 16.4 µM [falling, single point]",
CCOc1ccc(NC(=O)N(Cc2cn(CC)c3ccccc23)C2CCCCCC2)cc1,"inconclusive: 29.1 µM [falling, single point]",
CCc1ccc(-n2cc(-c3ccc(F)cc3)[n+]3c2SCCC3)cc1,,inactive: 1.79%
O=C(CSc1nnnn1-c1cccc2ccccc12)Nc1ccc(N2CCOCC2)c(Cl)c1,"inconclusive: 16.4 µM [falling, partial curve, poor fit]",
O=C1C(=C(c2ccccc2)c2ccccc2)Nc2ccccc21,"inconclusive: 18.4 µM [falling, single point]",
Cc1cccc(-c2nc(CSCC(=O)N3CCN(c4ccccn4)CC3)c(C)o2)c1,,inactive: -9.01%
CCOc1ccc(/C=C2/SC(=S)N(n3c(C)ccc3C)C2=O)cc1,"inconclusive: 25.9 µM [falling, partial curve, poor fit]",
Cc1ccc(Cn2c(SCC(=O)N/N=C/c3ccc(C)o3)nc3ccccc32)cc1,,inactive: -0.874%
COc1ccc(NC(=S)NNc2ccc([N+](=O)[O-])cc2S(=O)(=O)Nc2ccc(C)cc2C)cc1,"inconclusive: 29.1 µM [falling, single point]",
CC1CCN(C(=O)COC(=O)CNC(=O)C23CC4CC(CC(C4)C2)C3)CC1,"inconclusive: 6.51 µM [activator, single point]",
COC(=O)C1=C(C(=O)OC)[C@@H]2N(C)c3ccccc3[C@@]23C[C@@H](C(=O)OC)N(C(=O)c2ccc(Br)cc2)C3=N1,"inconclusive: 18.4 µM [falling, partial curve, poor fit]",
CCN(CC)CCCNC(=O)c1ccc(N2CCCCC2)c(NS(=O)(=O)c2ccc(C)cc2)c1,"inconclusive: 6.51 µM [activator, single point]",
CCCOC(=O)c1[nH]c2c(c1C)C(=O)CC(c1cccs1)C2 (stereo not drawn),"inconclusive: 0.291 µM [falling, partial curve, poor fit]",
CN1CCN(c2nnc(-c3ccc(F)cc3)c3ccccc23)CC1,,inactive: -0.911%
COc1ccc2c(c1)CC/C(=C\Nc1ccc3c(c1)OCO3)C2=O,"inconclusive: 20.6 µM [falling, partial curve, poor fit]",
OC(CNCCc1ccc(C(F)(F)F)cc1)COc1cccc2ccccc12 (stereo not drawn),,inactive: 27.6%
Cc1cccc(C(=O)NC2CC3CCCC(C2)N3S(=O)(=O)c2ccccc2)c1 (stereo not drawn),"inconclusive: 32.6 µM [falling, partial curve, poor fit]",
Cc1c2c(n3c(nc4ccccc43)c1C#N)N(CCN(C)C)CC2,"inconclusive: 20.6 µM [activator, partial curve]",
COc1ccc(S(=O)(=O)N(CC(=O)N/N=C/c2cccs2)c2cc(C)cc(C)c2)cc1OC,"inconclusive: 1.16 µM [falling, single point]",
C[C@]12c3[nH]c4ccc(Cl)cc4c3CCN1C(=O)[C@@H](CC(=O)NCc1ccco1)C[C@@H]2C(=O)N1CCOCC1,,inactive: -0.135%
N=c1c2c(-c3ccccc3)c(-c3ccccc3)n(Cc3ccco3)c2ncn1CCN1CCOCC1,"inconclusive: 8.2 µM [falling, single point]",
